The results in this text go back to US20240034772A1.

To fix the notation:
B1: MPE33 (antibody, V domains shown)
VH: QVQLQESGPGLVKPSQTLSLTCTVSGDSISNGSYCWNWVRQPAGKGLEWIGRIYPIGNTNYNPSLKSRVTISLDTSKNQFSLKLASVTAADTAVYYCAREARIFEGYYYYYYGLDVWGQGTTVTVSS
VL: EIVLTQSPATLSLSPGERATLSCRASQTISSYLAWYQQKPGQAPRLLISDVSKRATGIPARFSGSGSGTDFTLTISSLEPEDFAVYYCHQRSNWDTFGQGTKLEIK
B2: MPE33_C38Y (antibody, V domains shown)
VH: QVQLQESGPGLVKPSQTLSLTCTVSGDSISNGSYYWNWVRQPAGKGLEWIGRIYPIGNTNYNPSLKSRVTISLDTSKNQFSLKLASVTAADTAVYYCAREARIFEGYYYYYYGLDVWGQGTTVTVSS
VL: EIVLTQSPATLSLSPGERATLSCRASQTISSYLAWYQQKPGQAPRLLISDVSKRATGIPARFSGSGSGTDFTLTISSLEPEDFAVYYCHQRSNWDTFGQGTKLEIK
B3: MPE33_C38S (antibody, V domains shown)
VH: QVQLQESGPGLVKPSQTLSLTCTVSGDSISNGSYSWNWVRQPAGKGLEWIGRIYPIGNTNYNPSLKSRVTISLDTSKNQFSLKLASVTAADTAVYYCAREARIFEGYYYYYYGLDVWGQGTTVTVSS
VL: EIVLTQSPATLSLSPGERATLSCRASQTISSYLAWYQQKPGQAPRLLISDVSKRATGIPARFSGSGSGTDFTLTISSLEPEDFAVYYCHQRSNWDTFGQGTKLEIK
B4: MPE33_N34Q (antibody, V domains shown)
VH: QVQLQESGPGLVKPSQTLSLTCTVSGDSISQGSYCWNWVRQPAGKGLEWIGRIYPIGNTNYNPSLKSRVTISLDTSKNQFSLKLASVTAADTAVYYCAREARIFEGYYYYYYGLDVWGQGTTVTVSS
VL: EIVLTQSPATLSLSPGERATLSCRASQTISSYLAWYQQKPGQAPRLLISDVSKRATGIPARFSGSGSGTDFTLTISSLEPEDFAVYYCHQRSNWDTFGQGTKLEIK
B5: MPE33_N34S (antibody, V domains shown)
VH: QVQLQESGPGLVKPSQTLSLTCTVSGDSISSGSYCWNWVRQPAGKGLEWIGRIYPIGNTNYNPSLKSRVTISLDTSKNQFSLKLASVTAADTAVYYCAREARIFEGYYYYYYGLDVWGQGTTVTVSS
VL: EIVLTQSPATLSLSPGERATLSCRASQTISSYLAWYQQKPGQAPRLLISDVSKRATGIPARFSGSGSGTDFTLTISSLEPEDFAVYYCHQRSNWDTFGQGTKLEIK
B6: MPE33_S36A (antibody, V domains shown)
VH: QVQLQESGPGLVKPSQTLSLTCTVSGDSISNGAYCWNWVRQPAGKGLEWIGRIYPIGNTNYNPSLKSRVTISLDTSKNQFSLKLASVTAADTAVYYCAREARIFEGYYYYYYGLDVWGQGTTVTVSS
VL: EIVLTQSPATLSLSPGERATLSCRASQTISSYLAWYQQKPGQAPRLLISDVSKRATGIPARFSGSGSGTDFTLTISSLEPEDFAVYYCHQRSNWDTFGQGTKLEIK
B7: MPE33_N34S_C38Y (antibody, V domains shown)
VH: QVQLQESGPGLVKPSQTLSLTCTVSGDSISSGSYYWNWVRQPAGKGLEWIGRIYPIGNTNYNPSLKSRVTISLDTSKNQFSLKLASVTAADTAVYYCAREARIFEGYYYYYYGLDVWGQGTTVTVSS
VL: EIVLTQSPATLSLSPGERATLSCRASQTISSYLAWYQQKPGQAPRLLISDVSKRATGIPARFSGSGSGTDFTLTISSLEPEDFAVYYCHQRSNWDTFGQGTKLEIK
B8: MPE33_C38A (antibody, V domains shown)
VH: QVQLQESGPGLVKPSQTLSLTCTVSGDSISNGSYAWNWVRQPAGKGLEWIGRIYPIGNTNYNPSLKSRVTISLDTSKNQFSLKLASVTAADTAVYYCAREARIFEGYYYYYYGLDVWGQGTTVTVSS
VL: EIVLTQSPATLSLSPGERATLSCRASQTISSYLAWYQQKPGQAPRLLISDVSKRATGIPARFSGSGSGTDFTLTISSLEPEDFAVYYCHQRSNWDTFGQGTKLEIK
B9: MPF5_VH117D (MPF5) (antibody, V domains shown)
VH: QVQLQQWGAGLLKPSETLSLTCVGNSVSFNDYYWSWIRQSPGKGLEWIGEIGHGGEHNYNPSLNGRVTMSVDTSNNHFSLLLSSVTAADTAMYYCARGIGWLPPPDWGQGTLVTVSS
VL: DIVMTQSPDSLAVSLGERATINCKSSQSVLFSSNNENYLAWFQQKPGQPPKLLIYWASTRESGVPDRFSGSGSGTDFTLTITSLQAEDVAVYYCQQFYSPPWTFGQGTKVEIK
B10: MPF5_VH117H (antibody, V domains shown)
VH: QVQLQQWGAGLLKPSETLSLTCVGNSVSFNDYYWSWIRQSPGKGLEWIGEIGHGGEHNYNPSLNGRVTMSVDTSNNHFSLLLSSVTAADTAMYYCARGIGWLPPPHWGQGTLVTVSS
VL: DIVMTQSPDSLAVSLGERATINCKSSQSVLFSSNNENYLAWFQQKPGQPPKLLIYWASTRESGVPDRFSGSGSGTDFTLTITSLQAEDVAVYYCQQFYSPPWTFGQGTKVEIK

No constants are given. Whether binding was seen depends on the method and setting. A result given as binding can be weak or reduced; the word gives no strength.

The target in this assay is MPV F-protein HMPV_Yokohama/JPN(P8527)2016 (human metapneumovirus (hMPV), strain Yokohama/JPN(P8527)2016 (B2)). The assay can be described thus: flow cytometry on fixed, permeabilized transfected Expi293 cells, antibody at 5 µg/ml. In general terms: Flow cytometry measures light scatter and fluorescence of single cells or particles in a stream.
As to B1, the binding result is “binds”.

Consider B2, for which the binding result is recorded as “binds”.

For B3, the binding entry was “binds”.

Regarding B4, the binding result is listed as “binds”.

In the case of B5, the binding result is “binds”.

In the case of B6, the binding entry was “binds”.

On to B7, for which the binding result is on record as “binds”.

On to B8, for which the binding result is reported as “binds”.

Take B9: the binding result was “binds”.

Take B10: the binding result is “binds”.
